From PubChem BioAssay AID2685 (National Center for Advancing Translational Sciences (NCATS), 2010)
The other results are listed elsewhere or left out. Further columns of the screen follow, without active or inactive calls. Compounds called inactive in the main read-out are mostly missing here. The note in brackets gives the kind of curve behind each potency; many fits are weak.

Test: qHTS Assay for Lipid Storage Modulators in Drosophila S3 Cells;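 on cell number change: cells counted by Cell Tracker Red CMTPX staining in the red channel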
Settings: BODIPY lipid droplet fluorescence, 18-24 h; for cell number change: measured here: cell count max response, cells fed with added oleic acid
Procedure, shortened: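 Laser-scanning cytometry quantifies lipid droplet accumulation (500–530 nm total intensity; droplet/cell object ratio) in oleic acid-fed (400 uM added) Drosophila S3 cells treated with a concentration series. 20 uM Triacsin C defined 100% inhibition.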

[1] = measured here: lipid fluorescence (Fed channel) AC50, cells fed with added oleic acid
[2] = measured here: cell number channel AC50, cells fed with added oleic acid

Compound	cell number change [%]	AC50 [1]	AC50 [2]
COc1ccccc1NC(=O)/C(=C/c1ccncc1)NC(=O)c1ccccc1	4.2	6.51 µM [rising, single point]	
Cc1cc(NC(=O)CSc2ccc3nnc(-c4cccnc4)n3n2)no1	1.15	0.411 µM [rising, partial curve, poor fit]	
COc1ccc(-n2ncc3c2CC(C)(C)CC3NC(=O)CCC2=NNC(=O)CC2)cc1 (configuration not stated)	5.67		
Cc1ccnc(NC(=O)C2CCN(S(=O)(=O)c3cccc(C(F)(F)F)c3)CC2)c1	8.95	0.517 µM [rising, full curve, poor fit]	
COC(=O)C1CC(O)CN1S(=O)(=O)c1cccs1 (configuration not stated)	87.9	0.164 µM [rising, full curve, poor fit]	29.1 µM [rising, partial curve, poor fit]
CCNC(=O)COC(=O)CCC(=O)c1cccs1	131	29.1 µM [rising, single point]	29.1 µM [rising, single point]
COc1ccc(/C=C(\C#N)C(=O)OCC(=O)Nc2ccc(C(C)(C)C)cc2)cc1	4.3	0.411 µM [falling, full curve]	
Cc1ccc(C#N)c(SCc2ccccc2[N+](=O)[O-])n1	11.4	29.1 µM [rising, single point]	
O=C(Nc1cccc2ccccc12)c1ccc(Br)o1	9.06	3.66 µM [rising, partial curve, poor fit]	
CCCCn1c(N)c(NCc2ccccc2)c(=O)[nH]c1=O	15.1	10.3 µM [rising, partial curve]	
CCc1nc(SCC(=O)N2c3ccccc3Sc3ccccc32)c2ccccc2n1	8.2		
O=C(CSc1nccc(=O)[nH]1)Nc1ccc(Oc2ccccc2)cc1	12.6	29.1 µM [rising, single point]	
CC(=O)Nc1ccc(NC(=S)Nc2ccccc2)cc1			6.51 µM [falling, single point]
O=P(c1ccccc1)(c1ccccc1)C(O)c1ccc(Br)cc1 (configuration not stated)	15	0.116 µM [falling, full curve, poor fit]	
CCOCCCNCC(=O)Nc1ccccc1N1CCOCC1	-5.3	0.517 µM [falling, full curve, poor fit]	
Cn1cccc1-c1cc(C(=O)N/N=C/c2ccc(Cl)cc2)[nH]n1		32.6 µM [rising, partial curve, poor fit]	

Compound	cell number change [%]	AC50 [1]	AC50 [2]
COc1cc(C)ccc1OCc1cc(C(=O)NCCN2CCOCC2)no1	4.95		
COCCOC1CCN(C(=O)c2cc(COc3ccc(-n4cncn4)cc3)on2)CC1	54.5		
CCC(=O)N(Cc1ccc2c(c1)OCO2)Cc1cc2cc(OC)ccc2[nH]c1=O		29.1 µM [falling, single point]	
C=CCn1c(COc2cccc3ccc(C)nc23)nnc1SCC(=O)O	-30.6	29.1 µM [falling, partial curve]	32.6 µM [falling, single point]
CCOc1ccccc1NC(=O)Cn1c(C)cc(COC)c(C#N)c1=O	30.5	0.0517 µM [rising, partial curve, poor fit]	0.103 µM [rising, partial curve]
O=C(NCc1cccnc1)c1ccc(NC(=O)c2ccco2)cc1	6.39	18.4 µM [rising, partial curve]	
COC(=O)C1C(=O)c2c([nH]c(C(=O)OC3CCCC3C)c2C)CC1C (configuration not stated)	-70	29.1 µM [falling, single point]	
COc1ccc(NC(=O)c2cc3c(Cl)nc4ccccc4c3s2)cc1OC	-33.1	0.103 µM [rising, full curve]	6.51 µM [falling, full curve, poor fit]
C=CCN(CC=C)Cc1nc(N)nc(Nc2ccccc2C)n1	-2.57		
CCN(CC(=O)NCc1cccs1)C(=O)COc1ccc(C(C)=O)cc1	-6.98	6.51 µM [rising, partial curve, poor fit]	
COc1ccc(-c2nnc(SCc3cc(C)ccc3C)n2N)cc1	-27.2	32.6 µM [falling, single point]	
COc1ccc(OCC(=O)Nc2ccncc2)cc1	-17.9		
O=C(Oc1cc2oc(=O)c3c(c2cc1Cl)CCCC3)c1ccco1	-103	0.092 µM [falling, full curve, poor fit]	25.9 µM [falling, partial curve]
COCCCNc1nc(N)c([N+](=O)[O-])c(NC2CCCCC2)n1	-14.4		
COc1ccc(NC(=O)C2CCN(C(=O)C3CC(=O)N(c4ccc(C)cc4)C3)CC2)c(OC)c1 (configuration not stated)	-26.7		
